Data reported in publication PMC12681703.
No constants are given. Whether binding was seen depends on the method and setting. Binding seen in cells or lysates may run through a third protein. A result given as binding can be weak or reduced; the word gives no strength.

Sequences of proteins named here, by UniProt entry; tags and fusion partners are left off. A change or cut given only in a name is not applied to a line headed by its entry.
UniProt Q86VI4: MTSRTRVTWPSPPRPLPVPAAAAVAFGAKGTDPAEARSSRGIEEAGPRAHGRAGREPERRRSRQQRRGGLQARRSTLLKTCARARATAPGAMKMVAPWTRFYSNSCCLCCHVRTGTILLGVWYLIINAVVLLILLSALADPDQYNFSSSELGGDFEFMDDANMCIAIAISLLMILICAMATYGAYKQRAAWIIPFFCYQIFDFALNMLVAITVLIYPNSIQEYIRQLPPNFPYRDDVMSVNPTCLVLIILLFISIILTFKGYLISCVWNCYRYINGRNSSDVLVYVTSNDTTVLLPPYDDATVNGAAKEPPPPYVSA

T1: TRIM8 (endogenous) (human (endogenous in PC9)) (UniProt Q9BZR9)
T1 sequence: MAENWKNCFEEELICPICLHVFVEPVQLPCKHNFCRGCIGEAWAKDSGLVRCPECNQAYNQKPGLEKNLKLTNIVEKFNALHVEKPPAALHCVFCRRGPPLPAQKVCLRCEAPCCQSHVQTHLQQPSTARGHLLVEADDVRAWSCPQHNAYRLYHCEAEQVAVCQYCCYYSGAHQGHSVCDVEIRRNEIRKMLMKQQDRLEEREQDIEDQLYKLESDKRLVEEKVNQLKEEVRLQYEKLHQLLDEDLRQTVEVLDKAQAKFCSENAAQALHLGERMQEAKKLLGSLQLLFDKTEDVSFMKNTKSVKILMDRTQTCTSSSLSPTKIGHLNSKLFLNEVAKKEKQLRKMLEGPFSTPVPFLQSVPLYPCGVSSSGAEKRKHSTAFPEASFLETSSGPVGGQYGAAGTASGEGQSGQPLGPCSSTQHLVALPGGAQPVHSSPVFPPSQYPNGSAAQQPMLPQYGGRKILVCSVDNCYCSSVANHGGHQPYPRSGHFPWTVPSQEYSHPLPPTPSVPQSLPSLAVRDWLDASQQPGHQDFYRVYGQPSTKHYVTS


How the values were obtained:
[1] = molecular target: T1, TRIM8 (endogenous) (human (endogenous in PC9)); test: co-IP; reciprocal co-IPs with an anti-TRIM8 antibody, blots for ATP1A1 and LAPTM4B (Supplementary Fig. S8K-L)
[2] = molecular target: LAPTM4B-24-3xFlag (Flag-tagged LAPTM4B); test: co-IP; lysates of PC9 (some also HCC827) cells stably expressing the Flag-tagged bait, and control cells, precipitated with anti-Flag beads or antibody; partner detected by immunoblot (anti-HA, anti-ATP1A1, anti-TRIM8)

binding [1] | binding [2] | Molecule
binds | – | LAPTM4B (as probed in the reciprocal co-IPs) (from UniProt Q86VI4)
– | binds | TRIM8 (endogenous) (enzyme, UniProt Q9BZR9 1-551) MAENWKNCFEEELICPICLHVFVEPVQLPCKHNFCRGCIGEAWAKDSGLVRCPECNQAYNQKPGLEKNLKLTNIVEKFNALHVEKPPAALHCVFCRRGPPLPAQKVCLRCEAPCCQSHVQTHLQQPSTARGHLLVEADDVRAWSCPQHNAYRLYHCEAEQVAVCQYCCYYSGAHQGHSVCDVEIRRNEIRKMLMKQQDRLEEREQDIEDQLYKLESDKRLVEEKVNQLKEEVRLQYEKLHQLLDEDLRQTVEVLDKAQAKFCSENAAQALHLGERMQEAKKLLGSLQLLFDKTEDVSFMKNTKSVKILMDRTQTCTSSSLSPTKIGHLNSKLFLNEVAKKEKQLRKMLEGPFSTPVPFLQSVPLYPCGVSSSGAEKRKHSTAFPEASFLETSSGPVGGQYGAAGTASGEGQSGQPLGPCSSTQHLVALPGGAQPVHSSPVFPPSQYPNGSAAQQPMLPQYGGRKILVCSVDNCYCSSVANHGGHQPYPRSGHFPWTVPSQEYSHPLPPTPSVPQSLPSLAVRDWLDASQQPGHQDFYRVYGQPSTKHYVTS
